The results in this text go back to publication PMC8971453.

By UniProt entry, the sequences of proteins in these tests, tags left out.
UniProt P01106: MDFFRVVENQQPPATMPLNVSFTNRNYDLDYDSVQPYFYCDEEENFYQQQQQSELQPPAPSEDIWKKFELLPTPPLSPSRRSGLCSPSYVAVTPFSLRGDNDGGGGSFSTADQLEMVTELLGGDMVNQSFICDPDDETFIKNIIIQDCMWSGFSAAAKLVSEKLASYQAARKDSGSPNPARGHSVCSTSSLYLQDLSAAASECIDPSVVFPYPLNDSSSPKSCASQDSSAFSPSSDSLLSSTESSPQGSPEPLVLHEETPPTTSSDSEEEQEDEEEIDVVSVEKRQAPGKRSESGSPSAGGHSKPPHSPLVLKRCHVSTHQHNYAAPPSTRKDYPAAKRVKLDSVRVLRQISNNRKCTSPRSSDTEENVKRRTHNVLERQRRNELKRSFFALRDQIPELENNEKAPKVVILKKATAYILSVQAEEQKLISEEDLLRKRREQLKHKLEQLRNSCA

Results are given in words; binding and its absence hold for the method and conditions named. In cells and extracts the contact can be indirect. Some binding calls cover weakened binding; strength is not graded here.

For this assay, the target named is transcription factor MYC (human (endogenous in SGC-7901 and HGC-27)) (UniProt P01106). Put plainly: co-IP; whole-cell lysates of SGC-7901 and HGC-27 cells, precleared with anti-IgG for 2 h, protein G Sepharose beads overnight, Western blot; input 5% of the total cell extract. (In general: Immunoblotting shows a protein as a band on a membrane.)

B1: RNA-binding motif, single-stranded-interacting protein 1 (RBMS1) (protein, UniProt P29558 1-406)
chain: MGKVWKQQMYPQYATYYYPQYLQAKQSLVPAHPMAPPSPSTTSSNNNSSSSSNSGWDQLSKTNLYIRGLPPHTTDQDLVKLCQPYGKIVSTKAILDKTTNKCKGYGFVDFDSPAAAQKAVSALKASGVQAQMAKQQEQDPTNLYISNLPLSMDEQELENMLKPFGQVISTRILRDSSGTSRGVGFARMESTEKCEAVIGHFNGKFIKTPPGVSAPTEPLLCKFADGGQKKRQNPNKYIPNGRPWHREGEVRLAGMTLTYDPTTAAIQNGFYPSPYSIATNRMITQTSITPYIASPVSAYQVQSPSWMQPQPYILQHPGAVLTPSMEHTMSLQPASMISPLAQQMSHLSLGSTGTYMPATSAMQGAYLPQYAHMQTTAVPVEEASGQQQVAVETSNDHSPYTFQPNK
On to B1, for which the binding result was “binds”.
